Paper PMC3281849
Results are given in words; binding and its absence hold for the method and conditions named. In cells and extracts the contact can be indirect. Some binding calls cover weakened binding; strength is not graded here. For part of these data: Sequences can lack the tags named with a protein. One block for each molecule: values may come before it.

The chains behind the UniProt entries cited, without tags or fusion partners.
UniProt P19073: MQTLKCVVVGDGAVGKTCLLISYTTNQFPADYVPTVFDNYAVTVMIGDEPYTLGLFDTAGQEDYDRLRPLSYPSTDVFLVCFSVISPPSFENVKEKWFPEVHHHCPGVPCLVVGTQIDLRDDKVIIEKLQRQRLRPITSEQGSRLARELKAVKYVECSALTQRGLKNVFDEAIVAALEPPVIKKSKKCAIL
UniProt Q1ZXH8: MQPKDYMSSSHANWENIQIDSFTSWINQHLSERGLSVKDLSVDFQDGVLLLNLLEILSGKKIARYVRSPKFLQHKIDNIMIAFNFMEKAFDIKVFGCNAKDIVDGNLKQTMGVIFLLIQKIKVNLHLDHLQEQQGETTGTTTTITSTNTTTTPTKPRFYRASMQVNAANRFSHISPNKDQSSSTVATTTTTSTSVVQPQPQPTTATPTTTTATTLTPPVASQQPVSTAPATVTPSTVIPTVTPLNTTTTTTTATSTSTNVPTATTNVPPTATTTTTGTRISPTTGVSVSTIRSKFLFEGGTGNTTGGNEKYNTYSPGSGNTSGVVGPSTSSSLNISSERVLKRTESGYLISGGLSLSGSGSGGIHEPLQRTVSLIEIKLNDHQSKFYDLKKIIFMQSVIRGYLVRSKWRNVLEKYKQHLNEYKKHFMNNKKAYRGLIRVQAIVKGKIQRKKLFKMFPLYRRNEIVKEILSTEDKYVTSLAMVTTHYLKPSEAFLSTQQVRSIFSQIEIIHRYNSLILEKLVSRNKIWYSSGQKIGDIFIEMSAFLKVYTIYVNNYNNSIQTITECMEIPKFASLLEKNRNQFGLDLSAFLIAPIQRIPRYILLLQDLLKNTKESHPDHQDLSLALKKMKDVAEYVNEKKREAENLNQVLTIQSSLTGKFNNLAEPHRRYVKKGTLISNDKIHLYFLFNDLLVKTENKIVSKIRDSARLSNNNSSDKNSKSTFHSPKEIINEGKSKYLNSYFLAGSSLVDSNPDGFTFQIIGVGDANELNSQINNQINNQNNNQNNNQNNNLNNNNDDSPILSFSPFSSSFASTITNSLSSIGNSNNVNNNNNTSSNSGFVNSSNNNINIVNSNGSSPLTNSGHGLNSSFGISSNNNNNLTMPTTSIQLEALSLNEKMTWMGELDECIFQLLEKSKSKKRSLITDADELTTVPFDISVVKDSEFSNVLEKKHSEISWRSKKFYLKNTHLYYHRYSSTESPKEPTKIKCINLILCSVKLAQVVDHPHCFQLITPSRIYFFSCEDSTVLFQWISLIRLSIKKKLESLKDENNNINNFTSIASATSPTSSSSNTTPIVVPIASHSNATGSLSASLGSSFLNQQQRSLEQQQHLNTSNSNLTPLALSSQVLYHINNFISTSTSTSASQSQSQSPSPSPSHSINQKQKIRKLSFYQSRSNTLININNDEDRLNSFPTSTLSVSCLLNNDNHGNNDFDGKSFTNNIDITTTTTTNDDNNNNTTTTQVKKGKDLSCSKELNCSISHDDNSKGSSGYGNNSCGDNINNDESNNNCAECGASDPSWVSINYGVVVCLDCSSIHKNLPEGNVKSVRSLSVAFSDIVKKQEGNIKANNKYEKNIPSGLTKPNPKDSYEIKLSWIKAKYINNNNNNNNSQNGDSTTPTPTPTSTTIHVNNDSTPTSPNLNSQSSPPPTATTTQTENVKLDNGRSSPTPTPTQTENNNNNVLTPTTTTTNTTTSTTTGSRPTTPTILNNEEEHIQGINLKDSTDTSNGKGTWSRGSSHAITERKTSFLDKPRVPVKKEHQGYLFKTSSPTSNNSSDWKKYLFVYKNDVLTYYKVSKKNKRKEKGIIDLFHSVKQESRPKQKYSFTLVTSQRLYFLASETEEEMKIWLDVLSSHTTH

Key:
[1] = target: T1, D. discoideum ribosomal protein S4 (DdS4), expressed in S. cerevisiae (D. discoideum) (UniProt P51405); experiment: co-IP; lysates of cells over-expressing the GST-tagged proteins mixed in equal volumes, with DdS4; precleared with pre-immune IgG and protein G Sepharose; anti-DdS4 antibody overnight at 4°C, protein G Sepharose 2 hrs; blot with anti-GST
T1 sequence: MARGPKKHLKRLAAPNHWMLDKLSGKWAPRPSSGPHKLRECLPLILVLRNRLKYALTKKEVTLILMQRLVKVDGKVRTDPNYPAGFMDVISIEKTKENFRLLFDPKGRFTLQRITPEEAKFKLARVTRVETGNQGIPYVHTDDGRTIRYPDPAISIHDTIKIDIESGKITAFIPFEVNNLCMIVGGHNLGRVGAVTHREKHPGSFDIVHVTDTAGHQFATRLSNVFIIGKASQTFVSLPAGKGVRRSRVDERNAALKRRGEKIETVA

[2] = target: T2, DdS4, endogenous in D. discoideum AX2 cells (D. discoideum (endogenous in AX2)) (UniProt P51405); experiment: co-IP; lysates of control AX2 D. discoideum cells; pull-down with anti-DdS4 antibody; blot with anti-human Cdc24 (MCF2/Dbl), anti-human Cdc42 or anti-GxcDD
T2 sequence: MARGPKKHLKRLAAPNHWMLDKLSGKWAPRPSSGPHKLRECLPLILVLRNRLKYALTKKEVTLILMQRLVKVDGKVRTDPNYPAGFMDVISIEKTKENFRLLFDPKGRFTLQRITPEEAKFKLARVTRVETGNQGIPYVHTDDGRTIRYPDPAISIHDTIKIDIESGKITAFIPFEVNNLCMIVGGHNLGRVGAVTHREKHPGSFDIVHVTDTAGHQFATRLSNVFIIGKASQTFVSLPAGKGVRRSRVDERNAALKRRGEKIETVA

[3] = target: T1, D. discoideum ribosomal protein S4 (DdS4), expressed in S. cerevisiae (D. discoideum); experiment: co-IP; lysates of S. cerevisiae bem1 cells (lacking Bem1p) with DdS4; pull-down with anti-DdS4 antibody; blot with commercial anti-CDC24 or anti-CDC42
[4] = target: T3, GST-tagged ScCdc24p (S. cerevisiae) (UniProt P11433); experiment: pull-down; GST-tagged Cdc42p or Cdc24p from E. coli BL21 lysates held on GSH beads, incubated with a cell lysate over-expressing DdS4, 2 hrs at 4°C; washed with 50 mM HEPES, 100 mM NaCl, Triton X, 1 mM DTT, 5 mM EDTA; blot with anti-DdS4; only the target purified
T3 sequence: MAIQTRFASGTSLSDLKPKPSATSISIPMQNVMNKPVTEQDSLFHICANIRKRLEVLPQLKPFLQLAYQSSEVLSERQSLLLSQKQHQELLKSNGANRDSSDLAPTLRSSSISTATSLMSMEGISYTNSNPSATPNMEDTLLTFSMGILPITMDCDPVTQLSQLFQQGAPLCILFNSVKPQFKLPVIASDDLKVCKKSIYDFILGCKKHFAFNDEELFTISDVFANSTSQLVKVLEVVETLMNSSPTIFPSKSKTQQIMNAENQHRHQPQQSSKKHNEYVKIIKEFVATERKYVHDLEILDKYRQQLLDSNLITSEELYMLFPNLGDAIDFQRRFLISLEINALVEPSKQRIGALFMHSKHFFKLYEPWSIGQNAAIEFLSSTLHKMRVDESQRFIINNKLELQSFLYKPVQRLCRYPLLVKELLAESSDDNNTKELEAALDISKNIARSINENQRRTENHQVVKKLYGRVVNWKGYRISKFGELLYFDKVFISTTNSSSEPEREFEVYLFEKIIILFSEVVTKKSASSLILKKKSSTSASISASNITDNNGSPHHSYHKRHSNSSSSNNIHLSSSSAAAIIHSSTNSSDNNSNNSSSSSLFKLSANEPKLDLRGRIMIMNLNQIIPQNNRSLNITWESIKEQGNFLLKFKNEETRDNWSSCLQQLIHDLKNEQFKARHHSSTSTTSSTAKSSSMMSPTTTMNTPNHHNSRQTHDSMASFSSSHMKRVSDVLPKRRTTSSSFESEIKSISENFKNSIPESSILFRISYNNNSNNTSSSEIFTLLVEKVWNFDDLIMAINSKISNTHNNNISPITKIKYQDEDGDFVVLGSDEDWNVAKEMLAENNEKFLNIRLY

[5] = target: GST-tagged ScCdc42p (S. cerevisiae) (UniProt P19073); experiment: as above

Molecule: GST-tagged ScCdc42p (from UniProt P19073 1-191)
- binding [1]: binds

Molecule: Endogenous ScCdc42p (from UniProt P19073 1-191)
- binding [3]: binds

B2: GST-tagged ScCla4p (protein, UniProt P48562 1-842)
chain: MSLSAAANKISDNDFQNIGPAPRPPSSNSQGRTCYNQTQPITKLMSQLDLTSASHLGTSTSKKKSGWVSYKDDGILSFIWQKRYLMLHDSYVALYKNDKQNDDAILKIPLTSIISVSRTQLKQYCFELVRCSDRNSVSSGSSSSLNVSSDSNSKKSIYIATKTESDLHSWLDAIFAKCPLLSGVSSPTNFTHKVHVGFDPETGSFVGMPTNWEKLLKHSRITGEDWNNNSAAVIQVLQFYQEYNGAGNPTNTLDKPQSGETSSSQKSLPNSYNDNKLRNNSVNSKSSSGVSSSMVSQRKTSQPPNTKSPVSLGSGSLPPINTKLPTSQSNIPRHLQNVPNQQYPKMRNGHSPTNGQFPRGPMHPNNSQRSLQQQQQQQQQQKQQHQQYPYHHQGPSPSPSPSPSPLNPYRPHHNMINPYSKQPQSPLSSQSTQNQAIPRYAQNSSPTAAHFQPQRTAPKPPISAPRAPYPSNQNATSNTHVQPVAPKNDQSTPQTMRQAPKRPDADVAQPGGVAKPKKPARPTMSTAEIMSKLKKVTVNADPSQCFKVIEKAGQGASGSVYLAERTHIPTESNMIELINNDIDEPHVGDKVAIKQMVLSKQPRKELIVNEILVMKDSRHKNIVNFLEAYLRTDDDLWVVMEFMEGGSLTDIIENSPTNDNSHSPLTEPQIAYIVRETCQGLKFLHDKHIIHRDIKSDNVLLDTRARVKITDFGFCARLTDKRSKRATMVGTPYWMAPEVVKQREYDEKIDVWSLGIMTIEMLEGEPPYLNEDPLKALYLIATNGTPKLKHPESLSLEIKRFLSVCLCVDVRYRASTEELLHHGFFNMACDPKDLTSLLEWKE
- binding [1]: binds

B4: Endogenous ScCdc24p (protein, UniProt P11433 1-854)
chain: MAIQTRFASGTSLSDLKPKPSATSISIPMQNVMNKPVTEQDSLFHICANIRKRLEVLPQLKPFLQLAYQSSEVLSERQSLLLSQKQHQELLKSNGANRDSSDLAPTLRSSSISTATSLMSMEGISYTNSNPSATPNMEDTLLTFSMGILPITMDCDPVTQLSQLFQQGAPLCILFNSVKPQFKLPVIASDDLKVCKKSIYDFILGCKKHFAFNDEELFTISDVFANSTSQLVKVLEVVETLMNSSPTIFPSKSKTQQIMNAENQHRHQPQQSSKKHNEYVKIIKEFVATERKYVHDLEILDKYRQQLLDSNLITSEELYMLFPNLGDAIDFQRRFLISLEINALVEPSKQRIGALFMHSKHFFKLYEPWSIGQNAAIEFLSSTLHKMRVDESQRFIINNKLELQSFLYKPVQRLCRYPLLVKELLAESSDDNNTKELEAALDISKNIARSINENQRRTENHQVVKKLYGRVVNWKGYRISKFGELLYFDKVFISTTNSSSEPEREFEVYLFEKIIILFSEVVTKKSASSLILKKKSSTSASISASNITDNNGSPHHSYHKRHSNSSSSNNIHLSSSSAAAIIHSSTNSSDNNSNNSSSSSLFKLSANEPKLDLRGRIMIMNLNQIIPQNNRSLNITWESIKEQGNFLLKFKNEETRDNWSSCLQQLIHDLKNEQFKARHHSSTSTTSSTAKSSSMMSPTTTMNTPNHHNSRQTHDSMASFSSSHMKRVSDVLPKRRTTSSSFESEIKSISENFKNSIPESSILFRISYNNNSNNTSSSEIFTLLVEKVWNFDDLIMAINSKISNTHNNNISPITKIKYQDEDGDFVVLGSDEDWNVAKEMLAENNEKFLNIRLY
- binding [3]: binds

B5: GST-tagged ScBem1p (protein, UniProt P29366 1-551)
chain: MLKNFKLSKRDSNGSKGRITSADISTPSHDNGSVIKHIKTVPVRYLSSSSTPVKSQRDSSPKNRHNSKDITSPEKVIKAKYSYQAQTSKELSFMEGEFFYVSGDEKDWYKASNPSTGKEGVVPKTYFEVFDRTKPSSVNGSNSSSRKVTNDSLNMGSLYAIVLYDFKAEKADELTTYVGENLFICAHHNCEWFIAKPIGRLGGPGLVPVGFVSIIDIATGYATGNDVIEDIKSVNLPTVQEWKSNIARYKASNISLGSVEQQQQQSITKPQNKSAKLVDGELLVKASVESFGLEDEKYWFLVCCELSNGKTRQLKRYYQDFYDLQVQLLDAFPAEAGKLRDAGGQWSKRIMPYIPGPVPYVTNSITKKRKEDLNIYVADLVNLPDYISRSEMVHSLFVVLNNGFDREFERDENQNNIKTLQENDTATFATASQTSNFASTNQDNTLTGEDLKLNKKLSDLSLSGSKQAPAQSTSGLKTTKIKFYYKDDIFALMLKGDTTYKELRSKIAPRIDTDNFKLQTKLFDGSGEEIKTDSQVSNIIQAKLKISVHDI
- binding [1]: binds

The next lines start with the values.

- binding [2]: binds
Molecule: RacGEF GxcDD (from UniProt Q1ZXH8 1-1632)

- binding [4]: binds
- binding [5]: binds
B1: DdS4 in a cell lysate over-expressing DdS4 (GST pull-down) (protein, UniProt P51405 1-267)
chain: MARGPKKHLKRLAAPNHWMLDKLSGKWAPRPSSGPHKLRECLPLILVLRNRLKYALTKKEVTLILMQRLVKVDGKVRTDPNYPAGFMDVISIEKTKENFRLLFDPKGRFTLQRITPEEAKFKLARVTRVETGNQGIPYVHTDDGRTIRYPDPAISIHDTIKIDIESGKITAFIPFEVNNLCMIVGGHNLGRVGAVTHREKHPGSFDIVHVTDTAGHQFATRLSNVFIIGKASQTFVSLPAGKGVRRSRVDERNAALKRRGEKIETVA

- binding [1]: binds
B3: GST-tagged ScCdc24p (protein, UniProt P11433 1-854)
chain: MAIQTRFASGTSLSDLKPKPSATSISIPMQNVMNKPVTEQDSLFHICANIRKRLEVLPQLKPFLQLAYQSSEVLSERQSLLLSQKQHQELLKSNGANRDSSDLAPTLRSSSISTATSLMSMEGISYTNSNPSATPNMEDTLLTFSMGILPITMDCDPVTQLSQLFQQGAPLCILFNSVKPQFKLPVIASDDLKVCKKSIYDFILGCKKHFAFNDEELFTISDVFANSTSQLVKVLEVVETLMNSSPTIFPSKSKTQQIMNAENQHRHQPQQSSKKHNEYVKIIKEFVATERKYVHDLEILDKYRQQLLDSNLITSEELYMLFPNLGDAIDFQRRFLISLEINALVEPSKQRIGALFMHSKHFFKLYEPWSIGQNAAIEFLSSTLHKMRVDESQRFIINNKLELQSFLYKPVQRLCRYPLLVKELLAESSDDNNTKELEAALDISKNIARSINENQRRTENHQVVKKLYGRVVNWKGYRISKFGELLYFDKVFISTTNSSSEPEREFEVYLFEKIIILFSEVVTKKSASSLILKKKSSTSASISASNITDNNGSPHHSYHKRHSNSSSSNNIHLSSSSAAAIIHSSTNSSDNNSNNSSSSSLFKLSANEPKLDLRGRIMIMNLNQIIPQNNRSLNITWESIKEQGNFLLKFKNEETRDNWSSCLQQLIHDLKNEQFKARHHSSTSTTSSTAKSSSMMSPTTTMNTPNHHNSRQTHDSMASFSSSHMKRVSDVLPKRRTTSSSFESEIKSISENFKNSIPESSILFRISYNNNSNNTSSSEIFTLLVEKVWNFDDLIMAINSKISNTHNNNISPITKIKYQDEDGDFVVLGSDEDWNVAKEMLAENNEKFLNIRLY
